Reference: article PMC4920411, “Binary Toxin Subunits of Lysinibacillus sphaericus Are Monomeric and Form Heterodimers after In Vitro Activation” (PLoS ONE, 2016)
These are yes or no findings as the source states them, for the method shown. Sequences can lack the tags named with a protein.

Chains of the proteins cited; added tags and fusions are not shown.
UniProt P10565: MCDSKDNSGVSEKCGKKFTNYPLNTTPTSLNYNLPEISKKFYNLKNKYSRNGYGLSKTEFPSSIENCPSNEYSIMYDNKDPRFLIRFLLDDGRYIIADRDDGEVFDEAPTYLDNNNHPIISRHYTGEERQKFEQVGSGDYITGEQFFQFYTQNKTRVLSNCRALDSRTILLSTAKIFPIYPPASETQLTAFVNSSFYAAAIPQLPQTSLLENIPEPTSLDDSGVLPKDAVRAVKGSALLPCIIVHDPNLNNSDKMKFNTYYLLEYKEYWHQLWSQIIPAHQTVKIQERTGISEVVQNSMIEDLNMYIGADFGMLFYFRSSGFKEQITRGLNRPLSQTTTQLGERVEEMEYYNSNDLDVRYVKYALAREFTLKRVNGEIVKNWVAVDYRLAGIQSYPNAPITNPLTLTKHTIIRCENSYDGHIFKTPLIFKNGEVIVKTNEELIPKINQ

Columns and labels:
[1] = target: BinB protoxin (pro-B), His-tagged (Lysinibacillus sphaericus) (UniProt P10565); test: condition: 60 μM before and 18 μM after chromatography (total monomer); SEC; Superdex 200 HR 10/30, 50 mM Tris-HCl pH 9.0, 50 mM NaCl, 1 mM DTT; subunits alone or mixed 1:1, incubated 15 min at room temperature; typically 60 μM before and 18 μM after chromatography (total monomer); eluted band checked by SDS-PAGE and MALDI-TOF; both purified
[2] = target: BinB protoxin (pro-B), His-tagged (Lysinibacillus sphaericus) (UniProt P10565); test: static light scattering (SLS); Zetasizer Nano-ZS, 25°C, Debye plot, 0.05 to 1.2 mg/mL, 50 mM Tris-HCl pH 9.0, 50 mM NaCl, 1 mM DTT; both purified
[3] = target: BinB protoxin (pro-B), His-tagged (Lysinibacillus sphaericus) (UniProt P10565); test: dynamic light scattering (DLS); Zetasizer Nano-ZS, 25°C, particle size distribution by number, 50 mM Tris-HCl pH 9.0, 50 mM NaCl, 1 mM DTT; both purified
[4] = target: BinA protoxin (pro-A), His-tagged (Lysinibacillus sphaericus) (UniProt P06575); test: condition: 60 μM before and 18 μM after chromatography (total monomer); SEC; Superdex 200 HR 10/30, 50 mM Tris-HCl pH 9.0, 50 mM NaCl, 1 mM DTT; subunits alone or mixed 1:1, incubated 15 min at room temperature; typically 60 μM before and 18 μM after chromatography (total monomer); eluted band checked by SDS-PAGE and MALDI-TOF; both purified
[5] = target: BinA protoxin (pro-A), His-tagged (Lysinibacillus sphaericus) (UniProt P06575); test: static light scattering (SLS); Zetasizer Nano-ZS, 25°C, Debye plot, 0.05 to 1.2 mg/mL, 50 mM Tris-HCl pH 9.0, 50 mM NaCl, 1 mM DTT; both purified
[6] = target: BinA protoxin (pro-A), His-tagged (Lysinibacillus sphaericus) (UniProt P06575); test: dynamic light scattering (DLS); Zetasizer Nano-ZS, 25°C, particle size distribution by number, 50 mM Tris-HCl pH 9.0, 50 mM NaCl, 1 mM DTT; both purified

Molecule: BinB protoxin (pro-B), His-tagged (from UniProt P10565 1-448)
- binding [1]: no binding
- binding [2]: no binding (tested: 0.05 to 1.2 mg/mL)
- binding [3]: no binding

B1: BinA protoxin (pro-A), His-tagged (protein, UniProt P06575 7-370)
chain: IDSFIPTEGKYIRVMDFYNSEYPFCIHAPSAPNGDIMTEICSRENNQYFIFFPTDDGRVIIANRHNGSVFTGEATSVVSDIYTGSPLQFFREVKRTMATYYLAIQNPESATDVRALEPHSHELPSRLYYTNNIENNSNILISNKEQIYLTLPSLPENEQYPKTPVLSGIDDIGPNQSEKSIIGSTLIPCIMVSDFISLGERMKTTPYYYVKHTQYWQSMWSALFPPGSKETKTEKSGITDTSQISMTDGINVSIGADFGLRFGNKTFGIKGGFTYDTKTQITNTSQLLIETTYTREYTNTENFPVRYTGYVLASEFTLHRSDGTQVNTIPWVALNDNYTTIARYPHFASEPLLGNTKIITDDQN
- binding [1]: no binding
- binding [4]: no binding
- binding [2]: no binding (tested: 0.05 to 1.2 mg/mL)
- binding [5]: no binding (tested: 0.05 to 1.2 mg/mL)
- binding [3]: no binding
- binding [6]: no binding
